# The list shows a part of the results. This data set is noisy: repeats of one test often differ as much as different tests do.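 HEK293T cells were given each compound shortly before transfection with a reporter in which red mCherry is followed by the SARS-CoV-2 frameshift element and then GFP in the −1 frame, so GFP appears only after frameshifting.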
# Test system: SARS-CoV-2 -1 PRF reporter mCherry-FSE-GFP(-1)
# Test: mCherry (red) intensity as percent of control; higher = higher upstream reporter expression
# Conditions: 10 µM; 24 h; HEK293T
row,Structure (SMILES),mCherry
1,CCC1(CC)O[C@@H]2C[C@H]3[C@@H]4CCC5=CC(=O)C=C[C@]5(C)[C@@]4(F)[C@@H](O)C[C@]3(C)[C@]2(C(=O)CO)O1 [amcinafal],79.6%
2,CC[C@@H]([C@H](C)O)n1ncn(-c2ccc(N3CCN(c4ccc(OC[C@@H]5CO[C@@](Cn6cncn6)(c6ccc(F)cc6F)C5)cc4)CC3)cc2)c1=O [Posaconazole],103%
3,COc1ccc2cc([C@H](C)C(=O)O)ccc2c1 [Naproxen],101%
4,CCC(C)CCCCC(=O)NCC[C@@H]1NC(=O)[C@H](CC(C)C)NC(=O)[C@H](CCN)NC(=O)[C@H](CC(C)C)NC(=O)[C@H](CCN)NC(=O)[C@H](CCN)NC(=O)[C@H](CCN)NC(=O)[C@H]([C@@H](C)O)NC1=O (stereo not given in full) [colistimethate sodium],113%
5,CN(C)c1ccc(O)c2c1C[C@H]1C[C@H]3[C@H](N(C)C)C(=O)C(C(N)=O)=C(O)[C@@]3(O)C(=O)C1=C2O [Minocycline],106%

# — the supplement of paper PMC8256030
